The values that follow come from publication PMC11113010.

Sequences of proteins named here, by UniProt entry; tags and fusion partners are left off. Residues count along the entry.
UniProt P19256, residues 29-250: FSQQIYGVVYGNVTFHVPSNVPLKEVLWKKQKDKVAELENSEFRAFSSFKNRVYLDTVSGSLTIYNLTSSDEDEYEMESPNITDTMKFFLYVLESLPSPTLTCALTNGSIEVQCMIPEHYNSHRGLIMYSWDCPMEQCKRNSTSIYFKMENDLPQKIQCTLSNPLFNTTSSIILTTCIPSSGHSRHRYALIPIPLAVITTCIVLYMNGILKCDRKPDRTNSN
UniProt Q9NZQ7, residues 19-290: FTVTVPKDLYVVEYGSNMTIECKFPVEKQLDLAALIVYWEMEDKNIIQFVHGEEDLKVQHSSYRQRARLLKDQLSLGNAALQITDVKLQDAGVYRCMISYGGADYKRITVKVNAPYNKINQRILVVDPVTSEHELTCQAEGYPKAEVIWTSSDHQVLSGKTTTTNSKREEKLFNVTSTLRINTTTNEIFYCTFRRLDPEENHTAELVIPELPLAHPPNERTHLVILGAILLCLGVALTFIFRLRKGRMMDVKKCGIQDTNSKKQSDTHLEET

Results are given in words; binding and its absence hold for the method and conditions named. Binding seen in cells or lysates may run through a third protein. Some binding calls cover weakened binding; strength is not graded here.

In the experiment the target is T1, CMTM6 (CKLF like MARVEL transmembrane domain containing 6) (human (endogenous in A375)) (UniProt Q9NX76).
T1 sequence: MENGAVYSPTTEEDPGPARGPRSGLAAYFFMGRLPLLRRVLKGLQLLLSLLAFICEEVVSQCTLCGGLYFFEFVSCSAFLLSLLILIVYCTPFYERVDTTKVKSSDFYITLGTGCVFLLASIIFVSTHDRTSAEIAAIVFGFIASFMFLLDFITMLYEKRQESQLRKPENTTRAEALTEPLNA
Kind of experiment: co-IP; whole-cell lysates of A375 cells in 1% digitonin, 50 mM Tris-HCl pH 7.5, 150 mM NaCl; anti-CMTM6, anti-CD58 or anti-PD-L1 antibody 2 h at 4°C, Protein G Dynabeads, immunoblot; knockout cells (CMTM6, CD58, PD-L1) as controls of antibody specificity.

For “CD58 (LFA-3) (from UniProt P19256 29-250)”, the binding entry was “binds”. Consider PD-L1 (from UniProt Q9NZQ7 19-290), for which the binding result is on record as “binds”.
